Laboratory results published in paper PMC6696123.
Results are given in words; binding and its absence hold for the method and conditions named. Binding seen in cells or lysates may run through a third protein. A result given as binding can be weak or reduced; the word gives no strength.

Biological target: alkaline phosphatase (S. cerevisiae) (S. cerevisiae (endogenous in INVSc1))
Assay: SEC; endogenous proteins of INVSc1 yeast without LLA66, co-purified by DEAE ion exchange (200 to 300 mM NaCl), Ni-NTA (eluted by at least 100 mM imidazole), strong anion exchange, then size exclusion chromatography; bands of approximately 60, 40 and 30 kDa of the active peak identified by LC-MS/MS

binding | Binder
binds | IPP:DMAPP isomerase (S. cerevisiae) (enzyme, UniProt P15496 1-288) MTADNNSMPHGAVSSYAKLVQNQTPEDILEEFPEIIPLQQRPNTRSSETSNDESGETCFSGHDEEQIKLMNENCIVLDWDDNAIGAGTKKVCHLMENIEKGLLHRAFSVFIFNEQGELLLQQRATEKITFPDLWTNTCCSHPLCIDDELGLKGKLDDKIKGAITAAVRKLDHELGIPEDETKTRGKFHFLNRIHYMAPSNEPWGEHEIDYILFYKINAKENLTVNPNVNEVRDFKWVSPNDLKTMFADPSYKFTPWFKIICENYLFNWWEQLDDLSEVENDRQIHRML
binds | farnesyl diphosphate synthase (S. cerevisiae) (enzyme, UniProt P08524 1-352) MASEKEIRRERFLNVFPKLVEELNASLLAYGMPKEACDWYAHSLNYNTPGGKLNRGLSVVDTYAILSNKTVEQLGQEEYEKVAILGWCIELLQAYFLVADDMMDKSITRRGQPCWYKVPEVGEIAINDAFMLEAAIYKLLKSHFRNEKYYIDITELFHEVTFQTELGQLMDLITAPEDKVDLSKFSLKKHSFIVTFKTAYYSFYLPVALAMYVAGITDEKDLKQARDVLIPLGEYFQIQDDYLDCFGTPEQIGKIGTDIQDNKCSWVINKALELASAEQRKTLDENYGKKDSVAEAKCKKIFNDLKIEQLYHEYEESIAKDLKAKISQVDESRGFKADVLTAFLNKVYKRSK
